# In PubChem BioAssay AID720551 (National Center for Advancing Translational Sciences (NCATS), 2013):
# By UniProt entry, the sequences of proteins in these tests, tags left out. Where a name states a change or a piece, a line headed by the entry shows the natural chain unless it says otherwise.
# UniProt Q12809: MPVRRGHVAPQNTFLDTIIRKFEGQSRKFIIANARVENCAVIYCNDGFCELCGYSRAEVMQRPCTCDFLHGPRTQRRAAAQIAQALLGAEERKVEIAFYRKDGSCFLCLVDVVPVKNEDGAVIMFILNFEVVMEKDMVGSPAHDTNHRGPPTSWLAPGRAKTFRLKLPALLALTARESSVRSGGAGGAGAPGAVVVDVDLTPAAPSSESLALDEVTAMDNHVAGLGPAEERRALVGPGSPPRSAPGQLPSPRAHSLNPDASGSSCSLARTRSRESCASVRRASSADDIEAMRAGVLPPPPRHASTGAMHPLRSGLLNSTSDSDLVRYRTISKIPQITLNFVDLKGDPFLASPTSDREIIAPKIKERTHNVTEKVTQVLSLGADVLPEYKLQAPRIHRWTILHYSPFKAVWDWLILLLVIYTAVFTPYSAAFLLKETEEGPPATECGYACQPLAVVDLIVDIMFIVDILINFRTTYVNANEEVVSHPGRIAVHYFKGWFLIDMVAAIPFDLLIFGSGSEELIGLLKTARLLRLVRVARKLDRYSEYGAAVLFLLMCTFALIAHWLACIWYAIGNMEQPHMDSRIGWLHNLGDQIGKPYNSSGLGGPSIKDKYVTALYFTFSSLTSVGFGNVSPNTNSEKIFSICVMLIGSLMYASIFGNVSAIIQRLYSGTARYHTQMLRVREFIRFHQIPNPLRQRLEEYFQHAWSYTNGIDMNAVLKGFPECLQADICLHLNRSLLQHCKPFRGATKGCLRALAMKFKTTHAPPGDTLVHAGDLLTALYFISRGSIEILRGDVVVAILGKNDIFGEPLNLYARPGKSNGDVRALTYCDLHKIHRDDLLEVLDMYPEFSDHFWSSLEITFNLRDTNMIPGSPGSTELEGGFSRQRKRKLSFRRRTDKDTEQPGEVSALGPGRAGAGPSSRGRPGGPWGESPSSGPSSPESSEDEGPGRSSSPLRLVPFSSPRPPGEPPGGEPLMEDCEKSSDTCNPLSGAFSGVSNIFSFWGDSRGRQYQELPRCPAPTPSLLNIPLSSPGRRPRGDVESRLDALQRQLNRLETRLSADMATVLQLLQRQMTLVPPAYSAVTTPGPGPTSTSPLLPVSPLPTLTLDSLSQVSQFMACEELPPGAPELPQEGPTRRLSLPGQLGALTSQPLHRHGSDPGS
# Hit rate of the full screen: of about 340,000 compounds, about 1,300 (0.38%) were called active. Inconclusive results, whose numbers are uncertain, are shown with a selection of clear calls.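 How the source made its calls: active means maximum activity change below -70%; inconclusive means maximum activity change between -70% and -50%; inactive means maximum activity change above -50%.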
# Target: Voltage-gated inwardly rectifying potassium channel KCNH2 (Homo sapiens) (UniProt Q12809)
# Experiment: qHTS for Inhibitors of KCHN2 3.1: Wildtype qHTS
# Conditions: U2OS, BacMam KCNH2, thallium flux FluxOr; at 1.84 µM, stronger effect = lower value
# In short: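 U2OS cells transduced with wild-type KCNH2 virus are loaded with FluxOr dye for 45 min, and thallium flux is measured in kinetic reads before and after stimulation buffer. Rate constants are normalized to DMSO controls.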
# On the % scale 0 is the no-effect control and ±100 the full control effect.
row,Structure (SMILES),activity change
1,COc1ccc(C(=O)O/N=C(\N)Cc2ccc(Cl)cc2)cc1OC,inactive: 1.82%
2,Cc1ccc(N(CN2C(=O)C3C4CCC(C4)C3C2=O)C(=O)c2ccco2)cc1 (stereo not drawn),inactive: -3.51%
3,COc1ccc2oc(C(=O)OC(C)C(=O)Nc3ccc(N4CCOCC4)cc3)c(C)c2c1 (stereo not drawn),inconclusive: -53.1%
4,N=c1n(Cc2ccc(Cl)cc2)c2ccccc2n1CC(O)COc1ccccc1 (stereo not drawn),inconclusive: -56.3%
5,Cc1cc(C)cc(N(C(=O)CCC(=O)Nc2cc(C)on2)C(C(=O)NC2CCCC2)c2ccco2)c1 (stereo not drawn),inactive: 2.19%
6,CCCCCCCN1CCC(=O)N([C@H](CO)Cc2ccccc2)CC1,inconclusive: -59%
7,Cc1ccc(CN2CCN(Cc3ccc(-n4cccn4)cc3C)CC2CCO)cc1 (stereo not drawn),active: -91.1%
8,O=C(c1ccc(Cl)s1)N1CCCC(N2CCN(c3ccc(F)cc3)CC2)C1 (stereo not drawn),inconclusive: -53.5%
9,O=C(O)c1ccc2c(=O)n3c(nc2c1)/C(=C/c1cccc(O)c1)CC3,inconclusive: -56.7%
10,O=C(N/N=C/c1c(Cl)cccc1Cl)c1ccc(F)cc1,inactive: 4.11%
11,CC1(C)Cc2c(sc3c2c(N)nc(=S)n3Cc2ccc(Br)cc2)CO1,inconclusive: -53.4%
12,Cc1ccc(NC(=O)c2cccc(C(=O)Nc3ccc(C)c(C)c3)n2)cc1C,inconclusive: -54.1%
13,O=Cc1cc([N+](=O)[O-])ccc1N1CCN(Cc2ccc3c(c2)OCO3)CC1,inconclusive: -53.6%
14,CC(=O)c1cn(N(C)c2ncc(C(F)(F)F)cc2Cl)c(=O)[nH]c1=O,inactive: 3.18%
15,CCOC(=O)C1(Cc2ccc(Cl)cc2)CCN(C2CCC2)CC1,inactive: 8.1%
16,O=C(CSc1nnc(-c2cccc(Br)c2)o1)NCC1CCCO1 (stereo not drawn),active: -218%
17,CCc1nnc(NC(=O)C2CCCCN2S(=O)(=O)c2ccccc2)s1 (stereo not drawn),inconclusive: -67.4%
18,NS(=O)(=O)c1cc(C(=O)OCC(=O)Nc2ccc3[nH]c(=O)[nH]c3c2)ccc1Cl,inactive: -4.43%
19,COc1ccc(S(=O)(=O)NCC(c2cccnc2)N2CCN(Cc3ccccc3)CC2)cc1C (stereo not drawn),inconclusive: -63.5%
20,COc1ccc(-c2nnc(-c3cc4ccccc4oc3=O)o2)cc1,inactive: -14.3%
21,Cc1cc(C(=O)COC(=O)c2ccc[nH]c2=O)c(C)n1-c1ccccc1F,inactive: -4.25%

row,Structure (SMILES),activity change
1,O=C(CCNS(=O)(=O)c1cccc2nonc12)N1CCN(c2cccc(Cl)c2)CC1,inactive: -7.6%
2,O=C(NCc1nnc2c(C(F)(F)F)cc(Cl)cn12)c1ccc2c(c1)OCO2,active: -160%
3,C=CCn1c(SCC(=O)NC2CCCCC2)nc2ccccc2c1=O,inconclusive: -50.8%
4,COc1ccccc1NC(=O)c1ccccc1SCC(=O)N1CCCC1,inconclusive: -54.4%
5,CCOC(=O)c1cnc(-n2nc(C)cc2C)nc1NC1CCCCC1,active: -105%
6,Cc1nc(N2CCN(C)CC2)[nH]c(=O)c1Cc1cccc2ccccc12,inactive: -1.09%
7,Cc1cc(C)c(NC(=O)CSc2nc3ccc(NC(=O)CSc4nnnn4Cc4ccccc4)cc3s2)c(C)c1,inconclusive: -53.7%
8,O=C(c1cccc(C(F)(F)F)c1)C1CCCN(Cc2cccn2-c2ccccn2)C1 (stereo not drawn),inconclusive: -64.5%
9,CC(=O)c1ccc(S(=O)(=O)N2CCCC(N(C)CCc3ccccc3)C2)cc1 (stereo not drawn),inconclusive: -51.2%
10,CC(C)[C@@H](C(=O)NC1CCN(Cc2ccccc2)CC1)N1C(=O)N2CCc3c([nH]c4ccccc34)[C@@]2(C)C1=O,inconclusive: -56.7%
11,CC(C)Cc1nnc(NS(=O)(=O)c2ccccc2)s1,inconclusive: -50.6%
12,CCOc1ccc(C2C(C(=O)OC)=CN(CCOC)C=C2C(=O)OC)cc1,inactive: -2.38%
13,O=C(NCc1cccnc1)/C(=C/c1ccc([N+](=O)[O-])cc1)NC(=O)c1ccccc1,inconclusive: -66.2%
14,OC(COc1ccccc1Cl)CN1CCN(CC(O)COc2ccccc2Cl)CC1 (stereo not drawn),inconclusive: -55.8%
15,CC1CCCCN1C(=O)COC(=O)c1cc(Cl)c2c(c1)OCO2 (stereo not drawn),inactive: 3.33%
16,COc1ccc(-c2nnn(CC(=O)N(CC(=O)NC3CCCC3)Cc3cccs3)n2)cc1OC,inconclusive: -62.1%
17,Nc1nc(CSC(=S)N2CCOCC2)nc(Nc2ccc(F)cc2)n1,inactive: -1.72%
18,CC1(C)Cc2c(c(-c3ccco3)[nH]c(=O)c2C#N)CS1,inactive: -1.24%
19,CC(C)[C@H](NC(=O)c1c(F)cccc1F)C(=O)N1CCN(c2ccc(F)cc2)CC1,inconclusive: -51.1%
20,Cn1cccc1CC(=O)N/N=C/c1cccc2ccccc12,inconclusive: -57%
21,CCOC(=O)c1c(NC(=O)c2ccccc2C)sc2c1CC(C)(C)OC2,inactive: -6.85%

# Given as tab-separated lines: 2 of the compounds above.
row	Structure (SMILES)	activity change
15	CCOC(=O)C1(Cc2ccc(Cl)cc2)CCN(C2CCC2)CC1	inactive: 8.1%
16	O=C(CSc1nnc(-c2cccc(Br)c2)o1)NCC1CCCO1 (stereo not drawn)	active: -218%

# More records follow:

row,Structure (SMILES),activity change
1,CCOc1ccc(N2CC(O)(c3cccs3)[N+]3=C2CCCC3)cc1 (stereo not drawn),inconclusive: -68.3%
2,COc1ccccc1NS(=O)(=O)c1cc([N+](=O)[O-])ccc1N/N=C/c1sc(N2CCOCC2)nc1-c1ccccc1,inconclusive: -60.7%
3,CCCCNC(=O)C(C)N(CCN(C)C)C(=O)CCCN1C(=O)NC(c2ccc([N+](=O)[O-])cc2)C(C(=O)OCc2ccccc2)=C1C (stereo not drawn),inconclusive: -69%
4,Cc1ccc(S(=O)(=O)NCc2ccccc2)cc1C(=O)NC1CCC(C)CC1 (stereo not drawn),inconclusive: -61.1%
5,CN(C)CCNC(=O)c1cc2c(s1)-c1ccc(Cl)cc1SC2,active: -113%
6,CC(C)N(C(=O)Cn1c(SCC(=O)NCc2ccc3c(c2)OCO3)nc2ccccc21)C(C)C,active: -122%
7,CC(C)OC(=O)c1nn2c(C(F)(F)F)cc(-c3ccc(Br)o3)nc2c1Br,inconclusive: -53.1%
8,CCOC(=O)Cn1nc2oc(=O)c(CCN3CCN(c4ccccc4OC)CC3)c(C)c2c1C,inactive: 5.59%
9,Cc1cccc(-n2c(N)cc(=O)nc2SCC(=O)Nc2ccccc2)c1,active: -144%
10,O=[N+]([O-])c1cccc(S(=O)(=O)NCCc2cn3ccccc3n2)c1,inconclusive: -56.7%
11,C/C=C(/C)C(=O)O[C@@H]1c2c(ccc3ccc(=O)oc23)OC(C)(C)[C@@H]1OC(C)=O,inactive: 0.901%
12,CCc1ccc(C(=O)NNC(=O)c2cccc(N3C(=O)CCC3=O)c2)cc1,inconclusive: -55.1%
13,CC(=O)Nc1ccc(C(=O)OCc2ccc(F)cc2Cl)cc1,inconclusive: -67%
14,Cc1ccnc(NC(=O)Cn2c(=O)oc3ccccc32)c1,inconclusive: -61.4%
15,CCn1nnc(NC(=O)c2cccc(-c3cc4ccccc4oc3=O)c2)n1,inconclusive: -61.1%
16,O=S(=O)(NC1CCCCC1N1CCN(c2ccc(F)cc2)CC1)c1ccc(Cl)cc1 (stereo not drawn),inconclusive: -63.4%
17,CCN1/C(=C/C=C/c2oc3ccc(-c4ccccc4)cc3[n+]2CC)Oc2ccc(-c3ccccc3)cc21,active: -95.9%
18,CCC(C)Sc1cc(-c2nc3ccc(C)cn3c2NCc2ccccc2)ccc1OC (stereo not drawn),inconclusive: -54.8%
19,COc1ccc(OCc2nnc(SCC(=O)Nc3oc(C)c4c(C)n[nH]c(=O)c34)n2C)cc1,inconclusive: -61.6%
20,CCC(Cc1ccccc1)NC(=O)C1=C(C)C(=O)OC12CCC(C)CC2 (stereo not drawn),inconclusive: -52.7%
21,c1ccc(C[C@H]2CN=C(Nc3ccccc3)N2CCCC2CCCC2)cc1,active: -93.1%

# A stretch taken from the entries so far:
row,Structure (SMILES),activity change
3,CCCCNC(=O)C(C)N(CCN(C)C)C(=O)CCCN1C(=O)NC(c2ccc([N+](=O)[O-])cc2)C(C(=O)OCc2ccccc2)=C1C (stereo not drawn),inconclusive: -69%
4,Cc1ccc(S(=O)(=O)NCc2ccccc2)cc1C(=O)NC1CCC(C)CC1 (stereo not drawn),inconclusive: -61.1%
5,CN(C)CCNC(=O)c1cc2c(s1)-c1ccc(Cl)cc1SC2,active: -113%

# Remaining list, next part:

row,Structure (SMILES),activity change
1,CN(C)CCCN(C(=O)c1ccc2c(c1)CCCC2)c1nc2ccc(F)cc2s1,inconclusive: -54.8%
2,CC(C)CCC(CCN1CCCC1)c1ccc2c(c1)OCO2 (stereo not drawn),inconclusive: -58%
3,O=C(Nc1cc(Cl)ccc1N1CCOCC1)c1ccc2c(c1)OCO2,inconclusive: -51.1%
4,CCOc1ccc(CCN2C(=S)N([C@@H](CC(C)C)CN3CCCC3CN3C(=S)NC[C@@H]3Cc3ccc(O)cc3)C[C@@H]2CC(C)C)cc1 (stereo partly drawn),inconclusive: -52.5%
5,O=C(Nc1ccccc1N1CCN(C(=O)c2ccc(Cl)cc2)CC1)c1cccc(F)c1,inconclusive: -68.4%
6,COc1ccc(-c2csc(=Nc3c(C)n(C)n(-c4ccccc4)c3=O)n2C(C)(C)C)cc1,inconclusive: -65.7%
7,O=c1c2ccccc2nc2c3ccccc3c(NCc3ccccn3)nn12,inactive: -4.11%
8,COc1cccc(NC(=O)c2cc3ccccc3oc2=O)c1,active: -75.8%
9,CC1CC(C)CN(CCCCOc2ccc([N+](=O)[O-])cc2)C1 (stereo not drawn),inconclusive: -60.2%
10,COC(=O)c1ccccc1CON1C(=O)C(C)(C)N(OCc2ccccc2C(=O)OC)C(=O)C1(C)C,inconclusive: -57.9%
11,CCOc1ccc(CN2CCN(Cc3cccn3-c3ncccn3)CC2CCO)cc1 (stereo not drawn),inconclusive: -59.2%
12,Cn1cccc1CNC1CCCC1,inactive: -1.43%
13,Cc1cc(N2CCN(c3ccc(C(F)(F)F)cc3[N+](=O)[O-])CC2)c2ccccc2n1,active: -97.9%
14,COc1ccc(C(=O)NC(=S)Nc2ccc3[nH]c(=O)[nH]c3c2)c(OC)c1,inactive: 4.88%
15,CCc1ccc(NS(=O)(=O)c2ccc3[nH]cc(C(=O)N4CCCCC4)c(=O)c3c2)cc1,inconclusive: -52.1%
16,O=C(NCc1ccco1)C1CCN(c2nc3ccccc3n2Cc2ccccc2F)CC1,inconclusive: -53.2%
17,O=C(c1ccccc1)N1N=C(c2ccccc2)CC1c1ccccc1[N+](=O)[O-] (stereo not drawn),inactive: 12.4%
18,O=C(COC(=O)/C=C/c1ccc([N+](=O)[O-])cc1)NC(c1ccccc1)c1ccccc1,active: -133%
19,Nc1nc(-c2ccc3c(c2)CCCC3)cs1,inconclusive: -51.2%
20,COc1ccc(N(CC(O)Cn2c(C)nc3ccccc32)S(=O)(=O)c2ccc(C)cc2)cc1 (stereo not drawn),inconclusive: -52.9%
